This is an account of results in PubChem BioAssay AID493014 (National Center for Advancing Translational Sciences (NCATS), 2011).

The list shows a part of the results. Shown are side measurements of this screen, not its main read-out; they come without a call. The list favours compounds with an active or inconclusive main result. Words in brackets tell the shape of the fitted curve; partial curves, single points and poor fits give uncertain potencies.

A short description of this assay: qHTS Assay to Find Inhibitors of Chronic Active B-Cell Receptor Signaling. Conditions: ABC-DLBCL IkBa-CBG/CBR reporter, luminescence ratio (green luciferase fused to IkBa over red control in TMD8 lymphoma cells), 4 h. In a few lines: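 Cell line TMD8 (human ABC DLBCL), stably expressing tet-inducible CBG68-IkBa fusion and CBR; IMDM/0.5% FBS; cpd up to 46 uM; dox induction, 4 h, 37C/5% CO2; dual luminescence; green/red ratio; MG132 control.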
(qHTS replaces the single test concentration by a dilution series.)

Setting [1] is: measured here: CBR red luminescence, cell number.
The mark [2] stands for this setting: measured here: IkBa-CBG green luminescence.

For `CCOc1ccccc1C(=O)NCc1ccc2c(c1)CCN2C(=O)c1ccccc1`, the AC50 under setting [1] was 14.1 µM [falling, single point].
The same measure, in the same setting: the same measure for `CC1CCCC(C)N1CCCNC(=O)c1cc2c(s1)-c1ccccc1OC2` (stereo not given): 20 µM [falling, single point]; for `O=C(COC(=O)c1ccccc1)NC1CCCCCC1`: 4.61 µM [rising, full curve].
Same read-out and setting: the same measure for `O=C(Cn1c(-c2cscn2)nc2ccccc21)Nc1ccc(Cl)cc1`: 23.1 µM [falling, single point]; for `Cc1ccc(S(=O)(=O)/N=C(\CCl)N2CCOCC2)cc1`: 16.4 µM [falling, partial curve].
As to `O=C(Nc1ccn(Cc2ccccc2F)n1)c1ccc(COc2ccccc2Cl)cc1`, the AC50 under setting [1] is 2.91 µM [falling, partial curve, poor fit].
Same read-out and setting: the same measure for `CC1CCCC(C)N1C(=O)Cn1c(SCC(=O)NCc2ccc3c(c2)OCO3)nc2ccccc21` (stereo not given): 11.2 µM [falling, single point]; for `COc1ccc(C)cc1NC(=S)NNC(=O)c1ccccc1Cl`: 13 µM [falling, partial curve, poor fit]; for `CC(=O)Nc1cccc(-c2nc3ccccc3[nH]2)c1`: 12.6 µM [falling, partial curve, poor fit].
Turning to `CN/N=C(\Cc1nc2ccccc2[nH]1)c1ccc([N+](=O)[O-])cc1`, the concentration at half-maximal activity (AC50) under setting [1] was 8.91 µM [falling, partial curve, poor fit].
As for `O=c1sc2ccccc2n1CCOc1ccccc1`, the AC50 under setting [1] was 3.55 µM [rising, full curve].
The same measure, in the same setting: under `CSC1=N/C(=C\c2ccc(F)cc2)C(=O)S1` stands 1.41 µM [rising, full curve].
Regarding `O=C(O)c1cccc(COc2ccc(CO)cc2Cl)c1`, the AC50 by setting is: under setting [1], 2.06 µM [falling, full curve]; under setting [2], 13 µM [rising, partial curve, poor fit].
Consider `CCCCOc1cccc(-c2cc(C(=O)NNC(=S)NCC)c3ccccc3n2)c1`, for which the AC50 under setting [1] is 20.6 µM [falling, single point].
Same read-out and setting: the same measure for `CC(SC(=S)N1CCOCC1)C(=O)O` (stereo not given): 0.731 µM [falling, full curve, poor fit]; for `O=C(Nc1ccc(Br)cn1)c1cccc(-c2cc3ccccc3oc2=O)c1`: 29.1 µM [falling, single point].
As to `Cc1cccc(NC(=O)CN2CCC(C(=O)c3ccc4c(c3)OCCO4)CC2)c1`, the AC50 under setting [1] is 22.4 µM [falling, partial curve, poor fit].
For the compound `O=C(Nc1nnc(-c2ccc(Cl)s2)o1)C1CC1`, the AC50 is 28.2 µM [falling, single point] under setting [1] and 35.5 µM [falling, single point] under setting [2].
For the compound `CCOC(=O)C1=C(C)OC(N)=C(C#N)C1c1cc(C)sc1C` (stereo not given), the AC50 under setting [1] was 35.5 µM [falling, single point].
Turning to `Cc1ccc(S(=O)(=O)N(C)CC(=O)N2CCN(c3ccccn3)CC2)cc1`, the AC50 under setting [1] is 3.66 µM [falling, partial curve, poor fit].
In the case of `CC/C(=N/Nc1ccc(Cl)cc1)c1cnnc(SC)n1`, the concentration at half-maximal activity (AC50) is 16.4 µM [rising, partial curve] under setting [1] and 23.1 µM [falling, partial curve, poor fit] under setting [2].
For `O=C(CNC(=O)c1ccccc1)NCC1COc2ccccc2O1` (stereo not given), the half-maximal activity concentration (AC50) under setting [1] was 16.4 µM [rising, partial curve].
Same read-out and setting: under `COc1ccc2c(c1)O/C(=C\c1ccccc1C)C2=O` stands 6.31 µM [rising, full curve].
Consider `C=CCN1C(=O)C(Cc2cccc(Cl)c2)SC1=Nc1ccc(C(=O)O)cc1` (stereo not given), for which the AC50 runs as follows: under setting [1], 8.91 µM [falling, partial curve, poor fit]; under setting [2], 5.62 µM [rising, partial curve, poor fit].
Regarding `Cc1nc(Nc2ccccc2)sc1-c1ccccc1`, under setting [1], the AC50 was 16.4 µM [falling, partial curve].
Still for that read-out and setting: under `CC(C)CN1CCC(=O)N([C@H](CO)c2ccccc2)CC1` stands 0.631 µM [falling, partial curve, poor fit]; under `O=C(CSc1nc2nn(-c3ccccc3)c(=O)c-2c2n1CCCCC2)Nc1cccc(F)c1`, 23.1 µM [falling, single point]; under `O=C(CN1C(=O)C2CCCCC2C1=O)OCc1nnc(-c2ccccc2)o1` (stereo not given), 3.16 µM [rising, full curve, poor fit].
On to `Cc1cccc(-n2c(N)cc(=O)nc2SCC(=O)Nc2nnc(CC(C)C)s2)c1`, for which, under setting [1], the AC50 is 0.184 µM [rising, full curve, poor fit].
Still for that read-out and setting: the same measure for `O=c1cc[nH]c2c(Cl)cccc12`: 0.631 µM [falling, full curve].
As to `O=c1c2cc(N3CCOCC3)ccc2[nH]c(=S)n1CC1CCCO1` (stereo not given), the AC50 under setting [1] was 0.116 µM [falling, full curve, poor fit].
Still for that read-out and setting: under `CC(Oc1ccccc1)C(=O)Nc1nc(-c2ccccn2)cs1` (stereo not given) stands 7.31 µM [falling, single point].
Take `O=C(Cn1cc(C(=O)c2cccs2)c2ccccc21)NCc1cccs1`: the concentration at half-maximal activity (AC50) under setting [1] was 0.231 µM [rising, full curve, poor fit].
The same measure, in the same setting: under `COc1ccc(CCNc2nc(-c3ccc(O)cc3)cs2)cc1OC` stands 35.5 µM [falling, single point].
Regarding `COc1ccc(N(CC(=O)NCCSc2ccccc2)S(=O)(=O)c2ccccc2)cc1OC`, the AC50 under setting [1] was 5.62 µM [rising, single point].
As to `Cc1cc(/C=C(\C#N)C(=O)N2CCCCC2)cc(C)c1O`, the AC50 by setting is: under setting [1], 4.47 µM [rising, partial curve, poor fit]; under setting [2], 15.8 µM [falling, partial curve, poor fit].
Take `O=C(NCc1cccs1)c1ccncc1`: the AC50 under setting [1] was 7.31 µM [falling, partial curve, poor fit].
The same measure, in the same setting: the same measure for `COC(=O)c1ccc(-n2nnnc2SCC(=O)Nc2ccccc2F)cc1`: 12.6 µM [falling, partial curve].
Turning to `O=C(CSc1ccc(-c2nc3ccccc3[nH]2)cn1)N1CCN(C(=O)c2ccco2)CC1`, the half-maximal activity concentration (AC50) under setting [1] is 35.5 µM [falling, single point].
Consider `CCOC(=O)CSC1=C(C#N)C(c2ccccc2C)C2=C(CCCC2=O)N1` (stereo not given), for which the AC50 under setting [1] is 18.4 µM [falling, single point].
`Clc1ccc(Nc2nc3ccccc3n3nnnc23)cc1`: the AC50 under setting [1] was 11.6 µM [falling, partial curve, poor fit].
As for `Cc1ccc2oc(C(Cl)(Cl)Cl)cc(=O)c2c1`, the AC50 under setting [2] is 25.1 µM [falling, single point].
On to `CN1CCN(Cc2nc3ccccc3c(=O)n2Cc2nc(-c3ccc4ccccc4c3)cs2)CC1`, for which the AC50 under setting [1] was 29.1 µM [falling, single point].
On to `CCCCCOC(=O)CSc1nnc(-c2ccccc2)c(=O)[nH]1`, for which the AC50 under setting [1] is 4.47 µM [rising, partial curve, poor fit].
For the compound `COC(=O)c1cc2c(N)c(C(=O)c3ccc(Cl)cc3)sc2nc1C(OC)OC`, the AC50 under setting [2] was 0.708 µM [rising, full curve, poor fit].
As for `C/C(=N\NC(=O)COc1ccccc1-c1ccccc1)c1ccccn1`, the AC50 reads like this: under setting [1], 10 µM [rising, partial curve]; under setting [2], 22.4 µM [falling, partial curve].
For the compound `O=C(CSc1nnc(CNC(=O)c2ccccc2F)o1)Nc1ccc2c(c1)OCCO2`, the AC50 under setting [1] was 25.9 µM [rising, partial curve, poor fit].
Still for that read-out and setting: the same measure for `CCCOC(=O)c1[nH]c2c(c1C)C(=O)CC(c1cc(OC)c(OC)c(OC)c1)C2` (stereo not given): 16.4 µM [falling, partial curve].
On the same count and under the same terms, under `O=C(NNC(=O)c1cccs1)c1ccncc1` stands 25.1 µM [falling, single point].
On the same count and under the same terms, the same measure for `O=C(NNC(=O)c1cc2ccccc2cc1O)c1cccs1`: 0.355 µM [falling, full curve]; for `COc1cc(/C=N/Nc2nncn2N)ccc1OCc1c(C)no[n+]1[O-]`: 35.5 µM [falling, single point].
On to `CC(=O)Nc1ccc(NC(=O)C2CCCN2S(=O)(=O)c2cccc3nsnc23)cc1` (stereo not given), for which, under setting [1], the AC50 is 35.5 µM [rising, single point].
For the compound `COc1ccc(C2C(CC(=O)O)=C(Nc3ccccc3)C(=O)N2c2ccccc2)cc1` (stereo not given), the concentration at half-maximal activity (AC50) under setting [1] was 10 µM [falling, partial curve, poor fit].
Consider `O=C(NC1CCCCCC1)c1cccc(S(=O)(=O)N2CCOCC2)c1`, for which the AC50 under setting [1] was 2.59 µM [rising, full curve].
Turning to `Cc1cccc(C)c1-n1c(=O)n(Cc2ccccc2)c(=O)c2[nH]cnc21`, the AC50 under setting [1] is 5.62 µM [rising, single point].
On the same count and under the same terms, under `COc1ccc(NC(=O)CN(C)CC(=O)Nc2cccc(C(C)=O)c2)cc1` stands 1 µM [rising, partial curve, poor fit].
For the compound `Cc1ccc(N=Cc2c(O)n(-c3nccs3)c(=O)c3ccccc23)c(C)c1`, the AC50 under setting [1] is 32.6 µM [falling, partial curve, poor fit].
Consider `O=C(Nc1cccc(-c2nn[nH]n2)c1)c1ccc(Cl)s1`, for which, under setting [1], the AC50 was 20 µM [falling, single point].
On the same count and under the same terms, the same measure for `COc1ccc(-c2sc3ccccc3c2C#CCO)cc1`: 0.794 µM [rising, full curve, poor fit]; for `COc1ccccc1/C=C\C(=O)NCC(=O)N/N=C(/C)c1cccc([N+](=O)[O-])c1`: 35.5 µM [falling, single point].
Same read-out and setting: the same measure for `CCCc1cc(C(=O)NCc2cccs2)no1`: 17.8 µM [falling, single point]; for `COCc1cc(C)nc2sc(C(=O)NC3CCCCC3)c(N)c12`: 20.6 µM [falling, partial curve]; for `COc1cccc(/C=C2\SC(=S)N(CC3CCCO3)C2=O)c1` (stereo not given): 18.4 µM [rising, single point].
Same read-out and setting: the same measure for `CC[n+]1c(C)sc2cc(OC)ccc21`: 35.5 µM [falling, single point].

The AC50 is the concentration at which the activity in the assay is half-maximal.
